Read-outs that look alike come from different tables or passages of the source. These are yes or no findings as the source states them, for the method shown. For part of these data: Binding calls can cover weak binding; strength is not graded here. For part of these data: Sequences can lack the tags named with a protein. For part of these data: Binding seen in cells or lysates may run through a third protein. Values belong to the molecule of their own block, whether it stands above or below them.
What was measured:
[1] = target: myc-tagged full-length plakophilin-3 ΔSL (human) (UniProt Q9Y446); test: co-IP; anti c-myc immunoprecipitation from lysates of A431 cells stably expressing myc-tagged plakophilin-3 constructs; immunoblot with anti stratifin (endogenous stratifin)
[2] = target: plakophilin-3 HD ΔSL, Gal4 DNA binding domain fusion (human) (UniProt Q9Y446); test: two-hybrid; Matchmaker 3 (Clontech), baits in pGBKT7, preys in pGADT7, Y2H Gold yeast; growth on media lacking leucine, tryptophan and histidine
[3] = target: plakophilin-3 HD ΔSL, Gal4 DNA binding domain fusion (human) (UniProt Q9Y446); test: as above; remark: listed apart in the source

Amino acid sequences for entries named in this document (tags omitted). A change or cut given only in a name is not applied to a line headed by its entry.
UniProt Q9Y446: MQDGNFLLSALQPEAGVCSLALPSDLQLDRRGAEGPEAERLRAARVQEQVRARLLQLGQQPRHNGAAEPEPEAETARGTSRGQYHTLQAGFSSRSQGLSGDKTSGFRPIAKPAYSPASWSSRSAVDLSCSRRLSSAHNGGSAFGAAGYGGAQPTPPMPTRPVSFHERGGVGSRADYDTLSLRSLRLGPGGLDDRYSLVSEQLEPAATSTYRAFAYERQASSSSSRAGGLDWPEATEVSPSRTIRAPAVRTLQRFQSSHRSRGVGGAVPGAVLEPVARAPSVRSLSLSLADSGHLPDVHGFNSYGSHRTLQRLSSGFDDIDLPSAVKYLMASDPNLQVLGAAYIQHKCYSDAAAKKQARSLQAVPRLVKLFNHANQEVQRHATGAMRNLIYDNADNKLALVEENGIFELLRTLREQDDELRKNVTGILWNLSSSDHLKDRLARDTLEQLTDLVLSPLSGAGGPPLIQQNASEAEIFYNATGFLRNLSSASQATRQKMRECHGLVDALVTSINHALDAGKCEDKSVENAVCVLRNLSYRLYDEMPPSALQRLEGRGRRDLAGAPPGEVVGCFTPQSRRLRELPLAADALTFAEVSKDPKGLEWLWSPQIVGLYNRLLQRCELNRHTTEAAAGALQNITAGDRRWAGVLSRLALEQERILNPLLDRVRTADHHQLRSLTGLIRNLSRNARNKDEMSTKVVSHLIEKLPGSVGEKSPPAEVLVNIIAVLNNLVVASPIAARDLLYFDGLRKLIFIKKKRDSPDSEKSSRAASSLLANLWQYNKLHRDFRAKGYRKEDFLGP
UniProt P31947: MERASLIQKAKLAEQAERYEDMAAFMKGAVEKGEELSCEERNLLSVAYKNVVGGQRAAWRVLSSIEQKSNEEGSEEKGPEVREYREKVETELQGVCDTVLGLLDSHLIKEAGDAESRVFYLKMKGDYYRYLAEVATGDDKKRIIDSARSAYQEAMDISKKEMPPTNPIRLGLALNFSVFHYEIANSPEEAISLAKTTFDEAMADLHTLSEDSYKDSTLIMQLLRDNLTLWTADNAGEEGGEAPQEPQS

binding [1]: no binding
Molecule: stratifin (14-3-3 σ) (endogenous) (from UniProt P31947 1-248)

binding [2]: no binding
Molecule: full-length stratifin fused to the Gal4 activation domain (from UniProt P31947 1-248)

binding [3]: binds
B1: desmoplakin (amino acids 1-584) fused to the Gal4 activation domain (domain or fragment, UniProt P15924 1-584)
chain: MSCNGGSHPRINTLGRMIRAESGPDLRYEVTSGGGGTSRMYYSRRGVITDQNSDGYCQTGTMSRHQNQNTIQELLQNCSDCLMRAELIVQPELKYGDGIQLTRSRELDECFAQANDQMEILDSLIREMRQMGQPCDAYQKRLLQLQEQMRALYKAISVPRVRRASSKGGGGYTCQSGSGWDEFTKHVTSECLGWMRQQRAEMDMVAWGVDLASVEQHINSHRGIHNSIGDYRWQLDKIKADLREKSAIYQLEEEYENLLKASFERMDHLRQLQNIIQATSREIMWINDCEEEELLYDWSDKNTNIAQKQEAFSIRMSQLEVKEKELNKLKQESDQLVLNQHPASDKIEAYMDTLQTQWSWILQITKCIDVHLKENAAYFQFFEEAQSTEAYLKGLQDSIRKKYPCDKNMPLQHLLEQIKELEKEREKILEYKRQVQNLVNKSKKIVQLKPRNPDYRSNKPIILRALCDYKQDQKIVHKGDECILKDNNERSKWYVTGPGGVDMLVPSVGLIIPPPNPLAVDLSCKIEQYYEAILALWNQLYINMKSLVSWHYCMIDIEKIRAMTIAKLKTMRQEDYMKTIADLE
